According to PubChem BioAssay AID330 (DTP/NCI, 2004):
The list is a part of this screen's results and no random one: it is rich in T/C values a quarter to a half above the control, in often repeated tests (any T/C) and in doses without a T/C. Other doses and runs of a compound stand elsewhere. T/C: endpoint of the treated group in % of that of the vehicle group. Some entries give survivors of the animals treated and no T/C: the source holds a T/C of zero for them, seemingly a mark for toxic or unscored doses. Some doses without a T/C left all or most animals alive at the check, yet need not have been tolerated: survival well below the control is almost never listed, so the zero probably covers shortened survival too. Survivors were counted at the toxicity check, usually on the fifth day, unless a day is given; later deaths do not show. Schedule codes are those of the source, read here as Q, the interval in days (D) or hours (H), X, the number of doses. For survival time, this PubChem deposit counts one and a half times the control or more as active, and values a quarter to a half above the control carry no call in these data; other NCI protocols may use other cut-offs. Some T/C values carry the count of animals alive at the toxicity check (mostly the fifth day); where none is given, no animal had died by that day. Some entries were tested several times; the values are given in rising order.

Tested on: P388 leukemia ip, CD2F1 mice, survival T/C
Assay: NCI In Vivo Anticancer Drug Screen. Data for tumor model P388 Leukemia (intraperitoneal) in CD2F1 (CDF1) mice
Details: T/C endpoint: median survival time, higher T/C = longer survival
[1] = dose: 25.0 mg/kg/injection, schedule: Q01DX005 (ip), vehicle: saline with Tween-80
[2] = dose: 50.0 mg/kg/injection, schedule: Q01DX005 (ip), vehicle: saline with Tween-80
[3] = dose: 120.0 mg/kg/injection, schedule: Q01DX005 (ip), vehicle: saline with Tween-80
[4] = dose: 240.0 mg/kg/injection, schedule: Q01DX005 (ip), vehicle: saline with Tween-80
[5] = dose: 400.0 mg/kg/injection, schedule: Q04DX002 (ip), vehicle: saline with Tween-80
[6] = dose: 100.0 mg/kg/injection, schedule: Q01DX005 (ip), vehicle: saline with Tween-80
[7] = dose: 240.0 mg/kg/injection, schedule: Q01DX005 (ip), vehicle: saline
[8] = dose: 50.0 mg/kg/injection, schedule: Q01DX009 (ip), vehicle: saline with Tween-80
[9] = dose: 200.0 mg/kg/injection, schedule: Q01DX009 (ip), vehicle: saline
[10] = dose: 25.0 mg/kg/injection, schedule: Q01DX009 (ip), vehicle: water
[11] = dose: 120.0 mg/kg/injection, schedule: Q01DX005 (ip), vehicle: Klucel (hydroxypropylcellulose) (HPC)
[12] = dose: 25.0 mg/kg/injection, schedule: Q01DX009 (ip), vehicle: Klucel (hydroxypropylcellulose) (HPC)
[13] = dose: 100.0 mg/kg/injection, schedule: Q04DX002 (ip), vehicle: saline with Tween-80
[14] = dose: 6.25 mg/kg/injection, schedule: Q01DX009 (ip), vehicle: saline with Tween-80

## CC(=O)OC(CC=C(C)C)C1=CC(=O)c2c(O)ccc(O)c2C1=O (stereo unspecified)
[1]
  survivor count: 3 of 6
[2]
  survivor count: 0 of 6
dose: 100.0 mg/kg/injection, schedule: Q01DX001 (ip), vehicle: saline with Tween-80
  survivor count: 1 of 6
dose: 200.0 mg/kg/injection, schedule: Q01DX001 (ip), vehicle: saline with Tween-80
  survivor count: 0 of 6
dose: 400.0 mg/kg/injection, schedule: Q01DX001 (ip), vehicle: saline with Tween-80
  survivor count: 0 of 6

## CC(C=O)[Se]c1ccccc1 (stereo unspecified)
[3]
  survivor count: 0 of 6
[4]
  survivor count: 0 of 6

## C=c1cc2c(cc1=C)C(=O)c1ccccc1C2=O
[3]
  survivor count: 6 of 6

## CCCCCCCCCCCCCCCCSC1=CC(=O)C(OC)=C(OC)C1=O
dose: 4.0 mg/kg/injection, schedule: Q01DX009 (ip), vehicle: Klucel (hydroxypropylcellulose) (HPC)
  survivor count: 6 of 6

## CC(/C=N/Nc1ccccc1)=N\N=c1/scc(-c2ccc(Br)cc2)n1-c1ccc(Br)cc1
[5]
  survivor count: 4 of 6

## O=C(Nc1ccc(CCC2=NCCCN2)cc1)c1ccc(C(=O)Nc2ccc(CCC3=NCCCN3)cc2)cc1
[2]
  T/C: 125 % of control [5 of 6 alive]
[6]
  T/C: 133 and 148 % of control

## CCOC(=O)C1(C)CCCC1N (stereo unspecified)
[7]
  survivor count: 1 of 6

## [Cu+2].[NH-]/C=C\[NH-].[NH-]/C=C\[NH-].[O-][Cl+3]([O-])([O-])O
dose: 100.0 mg/kg/injection, schedule: Q04DX002 (ip), vehicle: saline
  survivor count: 0 of 6
dose: 200.0 mg/kg/injection, schedule: Q04DX002 (ip), vehicle: saline
  survivor count: 0 of 6
dose: 400.0 mg/kg/injection, schedule: Q04DX002 (ip), vehicle: saline
  survivor count: 0 of 6

## N#CC1CC=CCN1CCc1ccccc1 (stereo unspecified)
dose: 100.0 mg/kg/injection, schedule: Q01DX005 (ip), vehicle: saline + Tween-80 + alcohol
  survivor count: 0 of 5
dose: 200.0 mg/kg/injection, schedule: Q01DX005 (ip), vehicle: saline + Tween-80 + alcohol
  survivor count: 0 of 5

## Cc1ccc(NCCN2CCC(C3CCN(CCNc4ccc(C)c5sc6ccccc6c(=O)c45)CC3)CC2)c2c(=O)c3ccccc3sc12
[1]
  survivor count: 6 of 6
[2]
  survivor count: 6 of 6
[6]
  survivor count: 6 of 6

## COc1ccc2c(c1)CCC(c1nc3ccc(C)cc3[nH]c1=O)C2=O (stereo unspecified)
[4]
  survivor count: 2 of 6

## O=C1NC(=O)C(=O)N1
dose: 200.0 mg/kg/injection, schedule: Q04DX003 (ip), vehicle: saline
  survivor count: 6 of 6

## O=C1OC(=O)C2C3C=CC(O3)C12 (stereo unspecified)
dose: 120.0 mg/kg/injection, schedule: Q01DX005 (ip), vehicle: saline
  survivor count: 1 of 6
[7]
  survivor count: 0 of 6

## CC1(O)C=CP(C)(=O)C1 (stereo unspecified)
dose: 50.0 mg/kg/injection, schedule: Q01DX009 (ip), vehicle: saline
  survivor count: 6 of 6

## CCCCCCCCCCCCCCCC(=O)N(CCC#N)CCC#N
[8]
  T/C: 140 % of control

## CCOP1(=O)CCCCN1Cc1ccccc1 (stereo unspecified)
[9]
  survivor count: 2 of 6

## O=NNc1c2ccccc2nc2ccccc12
dose: 1.56 mg/kg/injection, schedule: Q01DX009 (ip), vehicle: water
  survivor count: 0 of 6
dose: 3.12 mg/kg/injection, schedule: Q01DX009 (ip), vehicle: water
  survivor count: 3 of 6
dose: 6.25 mg/kg/injection, schedule: Q01DX009 (ip), vehicle: water
  survivor count: 3 of 6
dose: 12.5 mg/kg/injection, schedule: Q01DX009 (ip), vehicle: water
  survivor count: 0 of 6
[10]
  survivor count: 0 of 6

## COC1(OC)OC2=C(OC1(OC)OC)c1ccccc1C2=O
[11]
  T/C: 126 % of control
  survivor count: 5 of 6
dose: 240.0 mg/kg/injection, schedule: Q01DX005 (ip), vehicle: Klucel (hydroxypropylcellulose) (HPC)
  survivor count: 3 of 6

## COC(=O)C1=NC(=N)N=C(C(=O)OC)C1(C)C(=O)c1ccc(Cl)cc1 (stereo unspecified)
[3]
  survivor count: 3 of 6
[4]
  survivor count: 1 of 6

## N#CN(Cc1ccccc1)C(c1ccccc1)(c1ccccc1)c1ccccc1.[Cl][Sn]([c]1ccccc1)([c]1ccccc1)[c]1ccccc1
[2]
  survivor count: 0 of 6
[6]
  survivor count: 0 of 6
dose: 200.0 mg/kg/injection, schedule: Q01DX005 (ip), vehicle: saline with Tween-80
  survivor count: 0 of 6

## COc1ccc2c(c1)c(CC(N)=O)c(C)n2C(=O)c1ccc(Cl)nc1
dose: 211.0 mg/kg/injection, schedule: Q01DX005 (ip), vehicle: saline with Tween-80
  survivor count: 6 of 6

## CC12CCCC(O1)C(C)(C)O2 (stereo unspecified)
[9]
  survivor count: 3 of 6

## Cc1nc(Cl)c2cnccn12
dose: 100.0 mg/kg/injection, schedule: Q04DX003 (ip), vehicle: saline
  survivor count: 0 of 6

## CC(C)CC(=O)NC(C(=O)NC(C(=O)NC(CC(C)C)C(O)CC(=O)NC(C)C(=O)NC(CC(C)C)C(O)CC(=O)O)C(C)C)C(C)C (stereo unspecified)
dose: 12.5 mg/kg/injection, schedule: Q01DX009 (ip), vehicle: Klucel (hydroxypropylcellulose) (HPC)
  T/C: 90, 95, 98, 99 % of control
[12]
  T/C: 91, 94, 102, 117 % of control
dose: 100.0 mg/kg/injection, schedule: Q01DX009 (ip), vehicle: Klucel (hydroxypropylcellulose) (HPC)
  survivor count: 3 of 6
dose: 200.0 mg/kg/injection, schedule: Q01DX009 (ip), vehicle: Klucel (hydroxypropylcellulose) (HPC)
  survivor count: 1 of 6
dose: 400.0 mg/kg/injection, schedule: Q01DX009 (ip), vehicle: Klucel (hydroxypropylcellulose) (HPC)
  survivor count: 0 of 6

## CC(=O)OC1=C(Br)CCc2ccccc21
dose: 50.0 mg/kg/injection, schedule: Q01DX009 (ip), vehicle: DMSO
  survivor count: 4 of 6

## COc1cc2ccc3c[n+]4ccccc4cc3c2cc1OC
[12]
  T/C: 130 % of control

## CN=C(N)N/N=C(\C)c1ccc2sc3ccc(/C(C)=N/NC(N)=NC)cc3c2c1
dose: 25.0 mg/kg/injection, schedule: Q04DX002 (ip), vehicle: saline with Tween-80
  T/C: 144 % of control
dose: 50.0 mg/kg/injection, schedule: Q04DX002 (ip), vehicle: saline with Tween-80
  T/C: 144 % of control
[13]
  T/C: 135 % of control [4 of 6 alive]

## Nc1ccc2oc3ccccc3c2c1
dose: 400.0 mg/kg/injection, schedule: Q04DX003 (ip), vehicle: saline with Tween-80
  survivor count: 5 of 6

## Cc1nccnc1NN=O
[10]
  T/C: 128 and 130 % of control
dose: 50.0 mg/kg/injection, schedule: Q01DX009 (ip), vehicle: water
  T/C: 137 and 142 % of control [5 of 6 alive]

## CCCCCC(C)[P+](c1ccccc1)(c1ccccc1)c1ccccc1 (stereo unspecified)
dose: 1.56 mg/kg/injection, schedule: Q01DX009 (ip), vehicle: saline with Tween-80
  T/C: 125 and 127 % of control
dose: 3.13 mg/kg/injection, schedule: Q01DX009 (ip), vehicle: saline with Tween-80
  T/C: 127 and 140 % of control
[14]
  T/C: 133 % of control
  survivor count: 4 of 6
dose: 12.5 mg/kg/injection, schedule: Q01DX009 (ip), vehicle: saline with Tween-80
  survivor count: 3 of 6
dose: 25.0 mg/kg/injection, schedule: Q01DX009 (ip), vehicle: saline with Tween-80
  survivor count: 1 of 6
[8]
  survivor count: 0 of 6
dose: 100.0 mg/kg/injection, schedule: Q01DX009 (ip), vehicle: saline with Tween-80
  survivor count: 0 of 6
dose: 200.0 mg/kg/injection, schedule: Q01DX009 (ip), vehicle: saline with Tween-80
  survivor count: 0 of 6

## CC1=CC(=O)C2OC2C1=O (stereo unspecified)
dose: 10.0 mg/kg/injection, schedule: Q04DX002 (ip), vehicle: saline with Tween-80
  survivor count: 0 of 6
dose: 20.0 mg/kg/injection, schedule: Q04DX002 (ip), vehicle: saline with Tween-80
  survivor count: 0 of 6
[13]
  survivor count: 0 of 6
dose: 200.0 mg/kg/injection, schedule: Q04DX002 (ip), vehicle: saline with Tween-80
  survivor count: 0 of 6
[5]
  survivor count: 0 of 6
